Data from US20090286727A1 (Ablynx, published 2009).
No constants are given. Whether binding was seen depends on the method and setting. Some binding calls cover weakened binding; strength is not graded here.

Sequences of proteins named here, by UniProt entry; tags and fusion partners are left off. Residues count along the entry.
UniProt P05231, residues 30-212: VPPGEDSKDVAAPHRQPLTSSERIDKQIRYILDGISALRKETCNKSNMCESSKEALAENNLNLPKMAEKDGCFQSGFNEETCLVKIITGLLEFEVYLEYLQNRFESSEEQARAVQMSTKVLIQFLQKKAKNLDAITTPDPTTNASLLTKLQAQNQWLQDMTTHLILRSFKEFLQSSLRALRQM

T1: IL6R
T1 sequence: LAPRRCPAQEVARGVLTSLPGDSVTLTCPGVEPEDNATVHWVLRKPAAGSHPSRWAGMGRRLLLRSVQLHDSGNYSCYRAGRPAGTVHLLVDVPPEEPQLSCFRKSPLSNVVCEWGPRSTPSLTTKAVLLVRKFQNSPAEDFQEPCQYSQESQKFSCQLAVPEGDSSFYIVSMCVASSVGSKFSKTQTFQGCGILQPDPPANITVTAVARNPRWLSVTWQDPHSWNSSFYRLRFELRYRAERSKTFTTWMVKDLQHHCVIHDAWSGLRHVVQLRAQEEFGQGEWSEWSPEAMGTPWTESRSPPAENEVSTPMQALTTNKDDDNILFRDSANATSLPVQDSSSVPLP


Experiments:
[1] = molecular target: T1, IL6R; assay: SPR (Biacore 3000), 300 nM Nanobody passed over a CM5 chip with human IL6R
[2] = molecular target: T2, human IL6 (human, UniProt P05231 30-212, biotinylated in the ELISA (bio-IL6); site not given); assay: SPR (Biacore 3000), 300 nM Nanobody passed over a CM5 chip with human IL6
T2 construct: In the ELISA it was biotinylated and captured on a neutravidin-coated plate; In Biacore it was on a CM5 sensor chip; also called bio-IL6; biotinylated human IL6

| Binder | binding [1] | binding [2] |
| --- | --- | --- |
| VH4 16.1 (VHH, The two are tied only by the clone number; Llama VH4-class Nanobody, purified by IMAC as a His6-tagged protein; also called anti-IL6 VH4 Nanobody 16.1; VH4 cl16; not shown: His6 tag from vector pAX51) VHH: QVQLQESGPGLVKPSQTLSLTCTVSGGSITTYRYYWSWIRQPPGKGLEWMGAIAYSGSTYYSPSLKSRTSISRDTTKNQFTLQLSSVTPEDTAVYYCARGRLGSWYYELNEYDYWGQGTQVTVSS | no binding (tested: 300 nM) | binds |
| VH4 20.1 (VHH, The two are tied only by the clone number; also called anti-IL6 VH4 Nanobody 20.1; VH4 Nanobody 20.1; not shown: His6 tag from vector pAX51) VHH: QVQLQESGPGLVKPSQTLSLTCTVSGGSITTYNYAWSWIRQPPGKGLEWMGVIAYDGSTYYSPSLKSRTSISRDTSKNQFSLQLSSVTPEDTAVYYCARGTVGSWYDEFPPRYDYWGQGTQVTVSS | no binding (tested: 300 nM) | binds |
